# Laboratory results taken from US9926294B2, “Pesticidally active heterocyclic derivatives with sulphur containing substituents” (Syngenta Participations AG, priority 2014, dated 2018).
# Some entries share one result that the patent states for a list of compounds.
# System: Aedes aegypti (yellow fever mosquito)
# Test: Example B13: Aedes aegypti adult females on treated tissue culture plates
# Assay type: in vivo
# Details: 200 ppm in ethanol, dry deposit, after 48 hours
row,Structure (SMILES),control of Aedes aegypti
1,CCS(=O)(=O)c1cc(C(F)(F)F)ccc1-c1nnc(-c2cc(C(F)(F)F)ccn2)n1C [Compound P60],at least 80%
2,CCS(=O)(=O)c1cc(C(F)(F)F)cnc1-c1nnc(-c2cnc(C(F)(F)F)nc2)n1C [Compound P62],at least 80%
